From patent US20260217701A1, “SELECTIVE BET INHIBITORS AND USES THEREOF” (Tay Therapeutics Limited, priority 2022, published 2026)
Where “and” joins values, the source holds several entries; their conditions need not be identical. Equal entries are not always repeated. This continues a long series; more values of the same kind are listed elsewhere.

Test: CIA study: animal body weight
Conditions: individual animals

Cn1cc(-c2ccccc2)c(-c2cn(C)c(=O)c3[nH]c(-c4cnn(C(F)(F)F)c4)cc23)cc1=O [Compound A, 6-methyl-4-(1-methyl-2-oxo-5-phenyl-1,2-dihydropyridin-4-yl)-2-(1-(trifluoromethyl)-1H-pyrazol-4-yl)-1,6-dihydro-7H-pyrrolo[2,3-c]pyridin-7-one]
Animal body weight percent change (%) (Day 1, Group 5 (CIA + Compound A 1 mg/kg), 1 mg/kg): 2.45% and 2.42% and −3.66% and 4.32% and 1.97% and 0.59% and 0.00% and 4.29% | Animal body weight percent change (%) (Day 1, Group 6 (CIA + Compound A 3 mg/kg), 3 mg/kg): −2.98% and 0.58% and 0.00% and −3.59% and −0.60% and 1.84% and 1.91% and 1.28% | Animal body weight percent change (%) (Day 1, Group 7 (CIA + Compound A 10 mg/kg), 10 mg/kg): −4.62% and 2.44% and 2.40% and 2.52% and 2.50% and −1.28% and 2.48% and 2.53% | Animal body weight percent change (%) (Day 2, Group 5 (CIA + Compound A 1 mg/kg), 1 mg/kg): 1.84% and 2.42% and −3.05% and 3.09% and −0.66% and −1.78% and −1.20% and −1.23% | Animal body weight percent change (%) (Day 2, Group 6 (CIA + Compound A 3 mg/kg), 3 mg/kg): −3.57% and 0.00% and 1.14% and −2.99% and −0.60% and 1.23% and 1.27% and 1.28% | Animal body weight percent change (%) (Day 2, Group 7 (CIA + Compound A 10 mg/kg), 10 mg/kg): −1.73% and 1.83% and 1.80% and 0.00% (2×) and 2.50% and 1.28% and 2.53% | Animal body weight percent change (%) (Day 3, Group 5 (CIA + Compound A 1 mg/kg), 1 mg/kg): 1.23% and 0.61% and −3.05% and 4.32% and 2.63% and 2.96% and 0.00% and 4.91% | Animal body weight percent change (%) (Day 3, Group 6 (CIA + Compound A 3 mg/kg), 3 mg/kg): 4.76% and 1.75% and −2.86% and −2.99% and −1.80% and −0.61% and 1.91% and 1.28% | Animal body weight percent change (%) (Day 3, Group 7 (CIA + Compound A 10 mg/kg), 10 mg/kg): −2.31% and 1.83% and 2.40% and −0.63% and 6.25% and 1.28% and −2.48% and 1.27% | Animal body weight percent change (%) (Day 4, Group 5 (CIA + Compound A 1 mg/kg), 1 mg/kg): 3.07% and 0.61% and −3.05% and 2.47% and 3.29% and 0.59% and −0.60% and 3.68% | Animal body weight percent change (%) (Day 4, Group 6 (CIA + Compound A 3 mg/kg), 3 mg/kg): −0.60% and 1.17% and 0.00% (2×) and −4.79% and −1.20% and −2.45% and 5.10% | Animal body weight percent change (%) (Day 4, Group 7 (CIA + Compound A 10 mg/kg), 10 mg/kg): −2.31% and −0.61% and 1.20% and 0.63% and 5.00% and 0.64% and 0.00% and 2.53% | Animal body weight percent change (%) (Day 5, Group 5 (CIA + Compound A 1 mg/kg), 1 mg/kg): 4.29% and 7.88% and 0.61% and 6.17% and 2.63% and 1.18% and 2.40% and 4.91% | Animal body weight percent change (%) (Day 5, Group 6 (CIA + Compound A 3 mg/kg), 3 mg/kg): −1.19% and 3.51% and 1.71% and −4.19% and −2.40% and 3.07% and 6.37% and −1.28% | Animal body weight percent change (%) (Day 5, Group 7 (CIA + Compound A 10 mg/kg), 10 mg/kg): −3.47% and 4.88% and 2.99% and 1.26% and 6.25% and 2.56% and 1.24% and 5.06% | Animal body weight percent change (%) (Day 6, Group 5 (CIA + Compound A 1 mg/kg), 1 mg/kg): 4.29% and 9.09% and −4.27% and 8.64% and 5.92% and 1.18% and 2.40% and 7.36% | Animal body weight percent change (%) (Day 6, Group 6 (CIA + Compound A 3 mg/kg), 3 mg/kg): −2.98% and 1.75% and 0.57% and −4.19% and 1.80% and 2.45% and 7.01% and 0.64% | Animal body weight percent change (%) (Day 6, Group 7 (CIA + Compound A 10 mg/kg), 10 mg/kg): −2.89% and 1.83% and 2.99% and 3.77% and 6.25% and 0.64% and 2.48% and 2.53% | Animal body weight percent change (%) (Day 7, Group 5 (CIA + Compound A 1 mg/kg), 1 mg/kg): 4.91% and 10.30% and −4.27% and 5.56% and 6.58% and 0.59% and 4.19% and 3.68% | Animal body weight percent change (%) (Day 7, Group 6 (CIA + Compound A 3 mg/kg), 3 mg/kg): −6.55% and 0.58% and −1.14% and −2.99% and −2.40% and 0.61% and 5.73% and −1.28% | Animal body weight percent change (%) (Day 7, Group 7 (CIA + Compound A 10 mg/kg), 10 mg/kg): −5.20% and 2.44% and 3.59% and 0.63% and 5.00% and −1.92% and −1.24% and 3.80% | Animal body weight percent change (%) (Day 8, Group 5 (CIA + Compound A 1 mg/kg), 1 mg/kg): 1.84% | Animal body weight percent change (%) (Day 8, Group 7 (CIA + Compound A 10 mg/kg), 10 mg/kg): −6.36% and 0.00% and −1.20% and 0.63% and 2.50% and −0.64% and −1.86% and 4.43% | Animal body weight percent change (%) (Day 9, Group 7 (CIA + Compound A 10 mg/kg), 10 mg/kg): −5.20% and 0.61% and 0.60% and 0.63% and 3.13% and −2.56% and 0.62% and 5.06% | Animal body weight percent change (%) (Day 10, Group 5 (CIA + Compound A 1 mg/kg), 1 mg/kg): 4.29% | Animal body weight percent change (%) (Day 10, Group 6 (CIA + Compound A 3 mg/kg), 3 mg/kg): 3.85% | Animal body weight percent change (%) (Day 10, Group 7 (CIA + Compound A 10 mg/kg), 10 mg/kg): −4.62% and 0.61% and 2.99% and 1.26% and 4.38% and 1.92% and 0.00% and 4.43% | Animal body weight percent change (%) (Day 11, Group 5 (CIA + Compound A 1 mg/kg), 1 mg/kg): 4.91% | Animal body weight percent change (%) (Day 11, Group 6 (CIA + Compound A 3 mg/kg), 3 mg/kg): 5.77% | Animal body weight percent change (%) (Day 11, Group 7 (CIA + Compound A 10 mg/kg), 10 mg/kg): −5.20% and 5.49% and 1.80% and 1.89% and 4.38% and −2.56% and −0.62% and 6.33% | Animal body weight percent change (%) (Day 12, Group 5 (CIA + Compound A 1 mg/kg), 1 mg/kg): 6.75% | Animal body weight percent change (%) (Day 12, Group 6 (CIA + Compound A 3 mg/kg), 3 mg/kg): 5.77% | Animal body weight percent change (%) (Day 12, Group 7 (CIA + Compound A 10 mg/kg), 10 mg/kg): −5.78% and 5.49% and 1.80% and 0.63% and 5.00% and 1.92% and 1.24% and 4.43% | Animal body weight percent change (%) (Day 13, Group 5 (CIA + Compound A 1 mg/kg), 1 mg/kg): 1.84% | Animal body weight percent change (%) (Day 13, Group 6 (CIA + Compound A 3 mg/kg), 3 mg/kg): 3.85% | Animal body weight percent change (%) (Day 13, Group 7 (CIA + Compound A 10 mg/kg), 10 mg/kg): −5.78% and 3.66% and 2.99% and −1.26% and 1.25% and 0.00% and −0.62% and 5.06% | Animal body weight percent change (%) (Day 14, Group 5 (CIA + Compound A 1 mg/kg), 1 mg/kg): 5.52% | Animal body weight percent change (%) (Day 14, Group 6 (CIA + Compound A 3 mg/kg), 3 mg/kg): 1.28% | Animal body weight percent change (%) (Day 14, Group 7 (CIA + Compound A 10 mg/kg), 10 mg/kg): −5.20% and 3.05% and 1.80% and −3.14% and 0.63% and 0.64% and 1.24% and 1.27% | Animal body weight percent change (%) (Day 15, Group 5 (CIA + Compound A 1 mg/kg), 1 mg/kg): 7.36% and 10.30% and −6.10% and 7.41% and 3.95% and 1.18% and 0.60% and 1.23% | Animal body weight percent change (%) (Day 15, Group 6 (CIA + Compound A 3 mg/kg), 3 mg/kg): −4.17% and 1.75% and −2.86% and 4.19% and −4.79% and 1.84% and 5.73% and 1.28% | Animal body weight percent change (%) (Day 15, Group 7 (CIA + Compound A 10 mg/kg), 10 mg/kg): −6.36% and 3.66% and 1.20% and −3.14% and 0.00% and 0.64% and −0.62% and 5.70% | Animal body weight percent change (%) (Day 16, Group 5 (CIA + Compound A 1 mg/kg), 1 mg/kg): 7.98% and 10.30% and −4.27% and 4.94% and 2.63% and 2.37% and −1.80% and −1.23% | Animal body weight percent change (%) (Day 16, Group 6 (CIA + Compound A 3 mg/kg), 3 mg/kg): −5.95% and −1.17% and −2.86% and 1.80% and −4.79% and 4.29% and 5.10% and 0.64% | Animal body weight percent change (%) (Day 16, Group 7 (CIA + Compound A 10 mg/kg), 10 mg/kg): −5.78% and 0.61% and 2.40% and −3.77% and 1.88% and 0.64% and −4.35% and 3.80% | Animal body weight percent change (%) (Day 17, Group 5 (CIA + Compound A 1 mg/kg), 1 mg/kg): 8.59% and 7.27% and −5.49% and 7.41% and 3.29% and 2.37% and −1.80% and −1.84% | Animal body weight percent change (%) (Day 17, Group 6 (CIA + Compound A 3 mg/kg), 3 mg/kg): −8.33% and −0.58% and −4.00% and 1.20% and −5.39% and 2.45% and 3.18% and 0.00% | Animal body weight percent change (%) (Day 17, Group 7 (CIA + Compound A 10 mg/kg), 10 mg/kg): −5.20% and −1.22% and −0.60% and −2.52% and 5.00% and 2.56% and −4.35% and 2.53% | Animal body weight percent change (%) (Day 18, Group 5 (CIA + Compound A 1 mg/kg), 1 mg/kg): 8.59% and 5.45% and −4.88% and 6.79% and 1.97% and 3.55% and −1.80% and −0.61% | Animal body weight percent change (%) (Day 18, Group 6 (CIA + Compound A 3 mg/kg), 3 mg/kg): −7.74% and −1.17% and −4.57% and 2.40% and −5.99% and 3.07% and 5.73% and −0.64% | Animal body weight percent change (%) (Day 18, Group 7 (CIA + Compound A 10 mg/kg), 10 mg/kg): −6.94% and −2.44% and 0.60% and −2.52% and 4.38% and 3.85% and −4.97% and 5.70% | Animal body weight percent change (%) (Day 19, Group 5 (CIA + Compound A 1 mg/kg), 1 mg/kg): 6.75% and 3.03% and −7.32% and 5.56% and 1.32% and 4.14% and −2.40% and 0.61% | Animal body weight percent change (%) (Day 19, Group 6 (CIA + Compound A 3 mg/kg), 3 mg/kg): −7.14% and −1.17% and −4.00% and 0.60% and −6.59% and 1.23% and 5.73% and −2.56% | Animal body weight percent change (%) (Day 19, Group 7 (CIA + Compound A 10 mg/kg), 10 mg/kg): −5.78% and −4.88% and 1.80% and −2.52% and 3.13% and 3.21% and −4.97% and 4.43% | Animal body weight percent change (%) (Day 20, Group 5 (CIA + Compound A 1 mg/kg), 1 mg/kg): 11.04% and 4.85% and −6.10% and 4.94% and 1.32% and 3.55% and −2.99% and −1.23% | Animal body weight percent change (%) (Day 20, Group 6 (CIA + Compound A 3 mg/kg), 3 mg/kg): −7.74% and −3.51% and −6.29% and −2.99% and −3.59% and 4.29% and 3.82% and −1.92% | Animal body weight percent change (%) (Day 20, Group 7 (CIA + Compound A 10 mg/kg), 10 mg/kg): −5.20% and −3.66% and 0.00% and −1.26% and 3.13% and 4.49% and −4.97% and 3.16% | Animal body weight percent change (%) (Day 21, Group 5 (CIA + Compound A 1 mg/kg), 1 mg/kg): 9.82% and 3.03% and −6.71% and 2.47% and 0.66% and 2.96% and −4.79% and 0.00% | Animal body weight percent change (%) (Day 21, Group 6 (CIA + Compound A 3 mg/kg), 3 mg/kg): −7.14% and −2.92% and −5.71% and −2.40% and −2.99% and 1.84% and 5.73% and −0.64% | Animal body weight percent change (%) (Day 21, Group 7 (CIA + Compound A 10 mg/kg), 10 mg/kg): −6.36% and −5.49% and 0.00% and 0.63% and 2.50% and 5.77% and −6.21% and 3.16%
